# According to the supplement of paper PMC8728848:
# This is one part of the list.
# B1: EUL D1A second (Oryza sativa) (protein)
# chain: GAATACTIGGVPVHTVRVFSAAGEDYCLTVRNGTACLAPKNPRDDYQHWIKDMRHSNKIRDEEGYPAFALVNKVTGEAIKHSTGQGHPVKLVPYNPEYQDESVLWTESKDVGKGFRCIRMVNNIYLNFDAFHGDKDHGGIHDGTEIVLWKWCEGDNQRWKILPWILEQKLISEEDLNSAVDHHHHHH
# Columns and labels:
# Assay in all cases: glycan array binding signal (z-score within array); higher = stronger binding
# Conditions in all cases: glycan notation: IUPAC condensed, linker removed
# [1] = target: Fuc(a1-2)Gal6S(b1-3)GlcNAc6S
# How it was run: (§1)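 From the Consortium for Functional Glycomics database, 3228 arrays were curated, keeping only those whose protein sequence was available. Binding is given as a within-array Z-score averaged across arrays sharing a protein sequence and across linkers. Negative Z-scores can be read as non-binding.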
# Fuc(a1-2)Gal6S(b1-4)Glc = target: Fuc(a1-2)Gal6S(b1-4)Glc
# How it was run: as §1
# [2] = target: Fuc(a1-2)Gal6S(b1-4)Glc6S
# How it was run: as §1
# Fuc(a1-2)[Gal(a1-3)]Gal = target: Fuc(a1-2)[Gal(a1-3)]Gal
# How it was run: as §1
# [3] = target: Fuc(a1-2)[Gal(a1-3)]Gal(b1-3)GalNAc
# How it was run: as §1
# [4] = target: Fuc(a1-2)[Gal(a1-3)]Gal(b1-3)GalNAc(b1-3)Gal(a1-4)Gal(b1-4)Glc
# How it was run: as §1
# [5] = target: Fuc(a1-2)[Gal(a1-3)]Gal(b1-3)GlcNAc
# How it was run: as §1
# [6] = target: Fuc(a1-2)[Gal(a1-3)]Gal(b1-3)GlcNAc(b1-2)Man(a1-3)[Fuc(a1-2)[Gal(a1-3)]Gal(b1-3)GlcNAc(b1-2)Man(a1-6)]Man(b1-4)GlcNAc(b1-4)GlcNAc
# How it was run: as §1
# [7] = target: Fuc(a1-2)[Gal(a1-3)]Gal(b1-3)GlcNAc(b1-2)Man(a1-3)[Fuc(a1-2)[Gal(a1-3)]Gal(b1-3)GlcNAc(b1-2)Man(a1-6)]Man(b1-4)GlcNAc(b1-4)[Fuc(a1-6)]GlcNAc
# How it was run: as §1
# [8] = target: Fuc(a1-2)[Gal(a1-3)]Gal(b1-3)GlcNAc(b1-3)GalNAc
# How it was run: as §1
# [9] = target: Fuc(a1-2)[Gal(a1-3)]Gal(b1-3)GlcNAc(b1-6)GalNAc
# How it was run: as §1
# [10] = target: Fuc(a1-2)[Gal(a1-3)]Gal(b1-4)Glc
# How it was run: as §1
# [11] = target: Fuc(a1-2)[Gal(a1-3)]Gal(b1-4)GlcNAc
# How it was run: as §1
# [12] = target: Fuc(a1-2)[Gal(a1-3)]Gal(b1-4)GlcNAc(b1-2)Man
# How it was run: as §1
# [13] = target: Fuc(a1-2)[Gal(a1-3)]Gal(b1-4)GlcNAc(b1-2)Man(a1-3)[Fuc(a1-2)[Gal(a1-3)]Gal(b1-4)GlcNAc(b1-2)Man(a1-6)]Man(b1-4)GlcNAc(b1-4)GlcNAc
# How it was run: as §1
# [14] = target: Fuc(a1-2)[Gal(a1-3)]Gal(b1-4)GlcNAc(b1-2)Man(a1-3)[Fuc(a1-2)[Gal(a1-3)]Gal(b1-4)GlcNAc(b1-2)Man(a1-6)]Man(b1-4)GlcNAc(b1-4)[Fuc(a1-6)]GlcNAc
# How it was run: as §1
# [15] = target: Fuc(a1-2)[Gal(a1-3)]Gal(b1-4)GlcNAc(b1-3)GalNAc
# How it was run: as §1
# [16] = target: Fuc(a1-2)[Gal(a1-3)]Gal(b1-4)GlcNAc(b1-3)[Fuc(a1-2)[Gal(a1-3)]Gal(b1-4)GlcNAc(b1-6)]GalNAc
# How it was run: as §1
# [17] = target: Fuc(a1-2)[Gal(a1-3)]Gal(b1-4)GlcNAc(b1-6)GalNAc
# How it was run: as §1
# [18] = target: Fuc(a1-2)[Gal(a1-3)]Gal(b1-4)[Fuc(a1-3)]Glc
# How it was run: as §1
# [19] = target: Fuc(a1-2)[Gal(a1-3)]Gal(b1-4)[Fuc(a1-3)]GlcNAc
# How it was run: as §1
# [20] = target: Fuc(a1-2)[Gal(a1-3)]Gal(b1-4)[Fuc(a1-3)]GlcNAc(b1-3)GalNAc
# How it was run: as §1
# [21] = target: Fuc(a1-2)[Gal(a1-4)]Gal(b1-4)GlcNAc
# How it was run: as §1
# [22] = target: Fuc(a1-2)[GalNAc(a1-3)]Gal
# How it was run: as §1
# [23] = target: Fuc(a1-2)[GalNAc(a1-3)]Gal(b1-3)GalNAc(a1-3)[Fuc(a1-2)]Gal(b1-4)GlcNAc
# How it was run: as §1
# [24] = target: Fuc(a1-2)[GalNAc(a1-3)]Gal(b1-3)GalNAc(b1-3)Gal(a1-4)Gal(b1-4)Glc
# How it was run: as §1
# [25] = target: Fuc(a1-2)[GalNAc(a1-3)]Gal(b1-3)GlcNAc
# How it was run: as §1
# [26] = target: Fuc(a1-2)[GalNAc(a1-3)]Gal(b1-3)GlcNAc(b1-2)Man(a1-3)[Fuc(a1-2)[GalNAc(a1-3)]Gal(b1-3)GlcNAc(b1-2)Man(a1-6)]Man(b1-4)GlcNAc(b1-4)GlcNAc
# How it was run: as §1
# [27] = target: Fuc(a1-2)[GalNAc(a1-3)]Gal(b1-3)GlcNAc(b1-2)Man(a1-3)[Fuc(a1-2)[GalNAc(a1-3)]Gal(b1-3)GlcNAc(b1-2)Man(a1-6)]Man(b1-4)GlcNAc(b1-4)[Fuc(a1-6)]GlcNAc
# How it was run: as §1
# [28] = target: Fuc(a1-2)[GalNAc(a1-3)]Gal(b1-3)GlcNAc(b1-3)GalNAc
# How it was run: as §1
# [29] = target: Fuc(a1-2)[GalNAc(a1-3)]Gal(b1-3)GlcNAc(b1-6)GalNAc
# How it was run: as §1
# [30] = target: Fuc(a1-2)[GalNAc(a1-3)]Gal(b1-4)Glc
# How it was run: as §1
# [31] = target: Fuc(a1-2)[GalNAc(a1-3)]Gal(b1-4)GlcNAc
# How it was run: as §1
# [32] = target: Fuc(a1-2)[GalNAc(a1-3)]Gal(b1-4)GlcNAc(b1-2)Man
# How it was run: as §1
# [33] = target: Fuc(a1-2)[GalNAc(a1-3)]Gal(b1-4)GlcNAc(b1-2)Man(a1-3)[Fuc(a1-2)[GalNAc(a1-3)]Gal(b1-4)GlcNAc(b1-2)Man(a1-6)]Man(b1-4)GlcNAc(b1-4)GlcNAc
# How it was run: as §1
# [34] = target: Fuc(a1-2)[GalNAc(a1-3)]Gal(b1-4)GlcNAc(b1-2)Man(a1-3)[Fuc(a1-2)[GalNAc(a1-3)]Gal(b1-4)GlcNAc(b1-2)Man(a1-6)]Man(b1-4)GlcNAc(b1-4)[Fuc(a1-6)]GlcNAc
# How it was run: as §1
# [35] = target: Fuc(a1-2)[GalNAc(a1-3)]Gal(b1-4)GlcNAc(b1-3)Gal(b1-4)GlcNAc
# How it was run: as §1
# [36] = target: Fuc(a1-2)[GalNAc(a1-3)]Gal(b1-4)GlcNAc(b1-3)Gal(b1-4)GlcNAc(b1-3)Gal(b1-4)GlcNAc
# How it was run: as §1
# [37] = target: Fuc(a1-2)[GalNAc(a1-3)]Gal(b1-4)GlcNAc(b1-3)GalNAc
# How it was run: as §1
# [38] = target: Fuc(a1-2)[GalNAc(a1-3)]Gal(b1-4)GlcNAc(b1-3)[Fuc(a1-2)[GalNAc(a1-3)]Gal(b1-4)GlcNAc(b1-6)]GalNAc
# How it was run: as §1
# [39] = target: Fuc(a1-2)[GalNAc(a1-3)]Gal(b1-4)GlcNAc(b1-6)GalNAc
# How it was run: as §1
# [40] = target: Fuc(a1-2)[GalNAc(a1-3)]Gal(b1-4)[Fuc(a1-3)]GlcNAc
# How it was run: as §1
# [41] = target: Fuc(a1-2)[GalNAc(a1-3)]Gal(b1-4)[Fuc(a1-3)]GlcNAc(b1-3)GalNAc
# How it was run: as §1
# [42] = target: Fuc(a1-2)[GalNAc(a1-4)]Gal(b1-4)GlcNAc
# How it was run: as §1
# [43] = target: Fuc(a1-2)[GalNAc(b1-3)]Gal
# How it was run: as §1
binder,measurement,setting,value
B1,glycan array binding signal (z-score),[1],1.43
same,glycan array binding signal (z-score),Fuc(a1-2)Gal6S(b1-4)Glc,-0.98
same,glycan array binding signal (z-score),[2],-0.663
same,glycan array binding signal (z-score),Fuc(a1-2)[Gal(a1-3)]Gal,0.547
same,glycan array binding signal (z-score),[3],0.087
same,glycan array binding signal (z-score),[4],-0.934
same,glycan array binding signal (z-score),[5],0.389
same,glycan array binding signal (z-score),[6],-0.152
same,glycan array binding signal (z-score),[7],-1.06
same,glycan array binding signal (z-score),[8],-1.58
same,glycan array binding signal (z-score),[9],-1.45
same,glycan array binding signal (z-score),[10],0.613
same,glycan array binding signal (z-score),[11],-0.058
same,glycan array binding signal (z-score),[12],-0.674
same,glycan array binding signal (z-score),[13],1.76
same,glycan array binding signal (z-score),[14],-0.587
same,glycan array binding signal (z-score),[15],0.369
same,glycan array binding signal (z-score),[16],0.599
same,glycan array binding signal (z-score),[17],-0.575
same,glycan array binding signal (z-score),[18],-0.45
same,glycan array binding signal (z-score),[19],-0.232
same,glycan array binding signal (z-score),[20],0.87
same,glycan array binding signal (z-score),[21],1.5
same,glycan array binding signal (z-score),[22],-0.789
same,glycan array binding signal (z-score),[23],1.47
same,glycan array binding signal (z-score),[24],-0.103
same,glycan array binding signal (z-score),[25],0.031
same,glycan array binding signal (z-score),[26],0.176
same,glycan array binding signal (z-score),[27],-0.853
same,glycan array binding signal (z-score),[28],0.724
same,glycan array binding signal (z-score),[29],-1.49
same,glycan array binding signal (z-score),[30],-0.583
same,glycan array binding signal (z-score),[31],-1.07
same,glycan array binding signal (z-score),[32],-0.902
same,glycan array binding signal (z-score),[33],-0.125
same,glycan array binding signal (z-score),[34],0.87
same,glycan array binding signal (z-score),[35],-0.086
same,glycan array binding signal (z-score),[36],0.157
same,glycan array binding signal (z-score),[37],0.798
same,glycan array binding signal (z-score),[38],-0.479
same,glycan array binding signal (z-score),[39],-0.558
same,glycan array binding signal (z-score),[40],1.06
same,glycan array binding signal (z-score),[41],1.89
same,glycan array binding signal (z-score),[42],0.772
same,glycan array binding signal (z-score),[43],-0.072

# Another view of some results above.
binder | measurement | setting | value
B1 | glycan array binding signal (z-score) | [2] | -0.663
same | glycan array binding signal (z-score) | [3] | 0.087
same | glycan array binding signal (z-score) | [9] | -1.45
same | glycan array binding signal (z-score) | [13] | 1.76
same | glycan array binding signal (z-score) | [14] | -0.587
same | glycan array binding signal (z-score) | [17] | -0.575
same | glycan array binding signal (z-score) | [25] | 0.031
same | glycan array binding signal (z-score) | [29] | -1.49
same | glycan array binding signal (z-score) | [30] | -0.583
same | glycan array binding signal (z-score) | [33] | -0.125
same | glycan array binding signal (z-score) | [35] | -0.086
same | glycan array binding signal (z-score) | [38] | -0.479
